No constants are given. Whether binding was seen depends on the method and setting. Binding seen in cells or lysates may run through a third protein. Some binding calls cover weakened binding; strength is not graded here.
Molecular target: EYFP-USP7 (UniProt Q93009)
Test: co-IP; HepG2 cells transfected with plasmids for 24 h, then treated with ATO and/or PTL for 24 h; lysed in IP lysis buffer; IP of EYFP-USP7 with GFP-agarose; Western blot with the indicated antibodies

Sequences of proteins named here, by UniProt entry; tags and fusion partners are left off.
UniProt Q93009: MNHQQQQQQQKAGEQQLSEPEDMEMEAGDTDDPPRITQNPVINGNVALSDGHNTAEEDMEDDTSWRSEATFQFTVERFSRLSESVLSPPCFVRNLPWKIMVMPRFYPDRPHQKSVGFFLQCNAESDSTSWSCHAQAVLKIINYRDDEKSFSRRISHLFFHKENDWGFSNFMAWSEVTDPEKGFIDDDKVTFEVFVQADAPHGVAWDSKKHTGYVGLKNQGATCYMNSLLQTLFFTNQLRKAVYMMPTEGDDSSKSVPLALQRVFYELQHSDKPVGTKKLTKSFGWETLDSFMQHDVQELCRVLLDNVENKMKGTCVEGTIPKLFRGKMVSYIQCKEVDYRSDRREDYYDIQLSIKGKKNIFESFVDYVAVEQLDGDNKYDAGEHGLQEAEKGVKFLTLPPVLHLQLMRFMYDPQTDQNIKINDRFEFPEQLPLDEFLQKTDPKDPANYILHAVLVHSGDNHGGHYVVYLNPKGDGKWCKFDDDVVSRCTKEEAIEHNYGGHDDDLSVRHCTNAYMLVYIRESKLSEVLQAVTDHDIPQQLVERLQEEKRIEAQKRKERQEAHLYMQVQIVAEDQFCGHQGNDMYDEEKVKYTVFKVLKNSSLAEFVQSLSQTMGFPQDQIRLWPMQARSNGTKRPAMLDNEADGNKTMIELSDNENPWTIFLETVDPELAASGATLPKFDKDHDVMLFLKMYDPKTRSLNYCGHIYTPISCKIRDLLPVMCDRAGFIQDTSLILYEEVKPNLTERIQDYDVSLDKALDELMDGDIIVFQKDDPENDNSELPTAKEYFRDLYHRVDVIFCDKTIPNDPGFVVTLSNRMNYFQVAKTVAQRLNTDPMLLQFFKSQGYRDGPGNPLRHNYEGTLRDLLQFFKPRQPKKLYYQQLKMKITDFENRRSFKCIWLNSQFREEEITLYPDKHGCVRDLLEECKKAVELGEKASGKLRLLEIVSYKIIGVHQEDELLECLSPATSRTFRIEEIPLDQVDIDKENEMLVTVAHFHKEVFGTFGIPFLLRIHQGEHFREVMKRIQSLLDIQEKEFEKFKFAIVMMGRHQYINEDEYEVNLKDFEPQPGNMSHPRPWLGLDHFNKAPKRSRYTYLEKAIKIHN
UniProt Q7Z6Z7: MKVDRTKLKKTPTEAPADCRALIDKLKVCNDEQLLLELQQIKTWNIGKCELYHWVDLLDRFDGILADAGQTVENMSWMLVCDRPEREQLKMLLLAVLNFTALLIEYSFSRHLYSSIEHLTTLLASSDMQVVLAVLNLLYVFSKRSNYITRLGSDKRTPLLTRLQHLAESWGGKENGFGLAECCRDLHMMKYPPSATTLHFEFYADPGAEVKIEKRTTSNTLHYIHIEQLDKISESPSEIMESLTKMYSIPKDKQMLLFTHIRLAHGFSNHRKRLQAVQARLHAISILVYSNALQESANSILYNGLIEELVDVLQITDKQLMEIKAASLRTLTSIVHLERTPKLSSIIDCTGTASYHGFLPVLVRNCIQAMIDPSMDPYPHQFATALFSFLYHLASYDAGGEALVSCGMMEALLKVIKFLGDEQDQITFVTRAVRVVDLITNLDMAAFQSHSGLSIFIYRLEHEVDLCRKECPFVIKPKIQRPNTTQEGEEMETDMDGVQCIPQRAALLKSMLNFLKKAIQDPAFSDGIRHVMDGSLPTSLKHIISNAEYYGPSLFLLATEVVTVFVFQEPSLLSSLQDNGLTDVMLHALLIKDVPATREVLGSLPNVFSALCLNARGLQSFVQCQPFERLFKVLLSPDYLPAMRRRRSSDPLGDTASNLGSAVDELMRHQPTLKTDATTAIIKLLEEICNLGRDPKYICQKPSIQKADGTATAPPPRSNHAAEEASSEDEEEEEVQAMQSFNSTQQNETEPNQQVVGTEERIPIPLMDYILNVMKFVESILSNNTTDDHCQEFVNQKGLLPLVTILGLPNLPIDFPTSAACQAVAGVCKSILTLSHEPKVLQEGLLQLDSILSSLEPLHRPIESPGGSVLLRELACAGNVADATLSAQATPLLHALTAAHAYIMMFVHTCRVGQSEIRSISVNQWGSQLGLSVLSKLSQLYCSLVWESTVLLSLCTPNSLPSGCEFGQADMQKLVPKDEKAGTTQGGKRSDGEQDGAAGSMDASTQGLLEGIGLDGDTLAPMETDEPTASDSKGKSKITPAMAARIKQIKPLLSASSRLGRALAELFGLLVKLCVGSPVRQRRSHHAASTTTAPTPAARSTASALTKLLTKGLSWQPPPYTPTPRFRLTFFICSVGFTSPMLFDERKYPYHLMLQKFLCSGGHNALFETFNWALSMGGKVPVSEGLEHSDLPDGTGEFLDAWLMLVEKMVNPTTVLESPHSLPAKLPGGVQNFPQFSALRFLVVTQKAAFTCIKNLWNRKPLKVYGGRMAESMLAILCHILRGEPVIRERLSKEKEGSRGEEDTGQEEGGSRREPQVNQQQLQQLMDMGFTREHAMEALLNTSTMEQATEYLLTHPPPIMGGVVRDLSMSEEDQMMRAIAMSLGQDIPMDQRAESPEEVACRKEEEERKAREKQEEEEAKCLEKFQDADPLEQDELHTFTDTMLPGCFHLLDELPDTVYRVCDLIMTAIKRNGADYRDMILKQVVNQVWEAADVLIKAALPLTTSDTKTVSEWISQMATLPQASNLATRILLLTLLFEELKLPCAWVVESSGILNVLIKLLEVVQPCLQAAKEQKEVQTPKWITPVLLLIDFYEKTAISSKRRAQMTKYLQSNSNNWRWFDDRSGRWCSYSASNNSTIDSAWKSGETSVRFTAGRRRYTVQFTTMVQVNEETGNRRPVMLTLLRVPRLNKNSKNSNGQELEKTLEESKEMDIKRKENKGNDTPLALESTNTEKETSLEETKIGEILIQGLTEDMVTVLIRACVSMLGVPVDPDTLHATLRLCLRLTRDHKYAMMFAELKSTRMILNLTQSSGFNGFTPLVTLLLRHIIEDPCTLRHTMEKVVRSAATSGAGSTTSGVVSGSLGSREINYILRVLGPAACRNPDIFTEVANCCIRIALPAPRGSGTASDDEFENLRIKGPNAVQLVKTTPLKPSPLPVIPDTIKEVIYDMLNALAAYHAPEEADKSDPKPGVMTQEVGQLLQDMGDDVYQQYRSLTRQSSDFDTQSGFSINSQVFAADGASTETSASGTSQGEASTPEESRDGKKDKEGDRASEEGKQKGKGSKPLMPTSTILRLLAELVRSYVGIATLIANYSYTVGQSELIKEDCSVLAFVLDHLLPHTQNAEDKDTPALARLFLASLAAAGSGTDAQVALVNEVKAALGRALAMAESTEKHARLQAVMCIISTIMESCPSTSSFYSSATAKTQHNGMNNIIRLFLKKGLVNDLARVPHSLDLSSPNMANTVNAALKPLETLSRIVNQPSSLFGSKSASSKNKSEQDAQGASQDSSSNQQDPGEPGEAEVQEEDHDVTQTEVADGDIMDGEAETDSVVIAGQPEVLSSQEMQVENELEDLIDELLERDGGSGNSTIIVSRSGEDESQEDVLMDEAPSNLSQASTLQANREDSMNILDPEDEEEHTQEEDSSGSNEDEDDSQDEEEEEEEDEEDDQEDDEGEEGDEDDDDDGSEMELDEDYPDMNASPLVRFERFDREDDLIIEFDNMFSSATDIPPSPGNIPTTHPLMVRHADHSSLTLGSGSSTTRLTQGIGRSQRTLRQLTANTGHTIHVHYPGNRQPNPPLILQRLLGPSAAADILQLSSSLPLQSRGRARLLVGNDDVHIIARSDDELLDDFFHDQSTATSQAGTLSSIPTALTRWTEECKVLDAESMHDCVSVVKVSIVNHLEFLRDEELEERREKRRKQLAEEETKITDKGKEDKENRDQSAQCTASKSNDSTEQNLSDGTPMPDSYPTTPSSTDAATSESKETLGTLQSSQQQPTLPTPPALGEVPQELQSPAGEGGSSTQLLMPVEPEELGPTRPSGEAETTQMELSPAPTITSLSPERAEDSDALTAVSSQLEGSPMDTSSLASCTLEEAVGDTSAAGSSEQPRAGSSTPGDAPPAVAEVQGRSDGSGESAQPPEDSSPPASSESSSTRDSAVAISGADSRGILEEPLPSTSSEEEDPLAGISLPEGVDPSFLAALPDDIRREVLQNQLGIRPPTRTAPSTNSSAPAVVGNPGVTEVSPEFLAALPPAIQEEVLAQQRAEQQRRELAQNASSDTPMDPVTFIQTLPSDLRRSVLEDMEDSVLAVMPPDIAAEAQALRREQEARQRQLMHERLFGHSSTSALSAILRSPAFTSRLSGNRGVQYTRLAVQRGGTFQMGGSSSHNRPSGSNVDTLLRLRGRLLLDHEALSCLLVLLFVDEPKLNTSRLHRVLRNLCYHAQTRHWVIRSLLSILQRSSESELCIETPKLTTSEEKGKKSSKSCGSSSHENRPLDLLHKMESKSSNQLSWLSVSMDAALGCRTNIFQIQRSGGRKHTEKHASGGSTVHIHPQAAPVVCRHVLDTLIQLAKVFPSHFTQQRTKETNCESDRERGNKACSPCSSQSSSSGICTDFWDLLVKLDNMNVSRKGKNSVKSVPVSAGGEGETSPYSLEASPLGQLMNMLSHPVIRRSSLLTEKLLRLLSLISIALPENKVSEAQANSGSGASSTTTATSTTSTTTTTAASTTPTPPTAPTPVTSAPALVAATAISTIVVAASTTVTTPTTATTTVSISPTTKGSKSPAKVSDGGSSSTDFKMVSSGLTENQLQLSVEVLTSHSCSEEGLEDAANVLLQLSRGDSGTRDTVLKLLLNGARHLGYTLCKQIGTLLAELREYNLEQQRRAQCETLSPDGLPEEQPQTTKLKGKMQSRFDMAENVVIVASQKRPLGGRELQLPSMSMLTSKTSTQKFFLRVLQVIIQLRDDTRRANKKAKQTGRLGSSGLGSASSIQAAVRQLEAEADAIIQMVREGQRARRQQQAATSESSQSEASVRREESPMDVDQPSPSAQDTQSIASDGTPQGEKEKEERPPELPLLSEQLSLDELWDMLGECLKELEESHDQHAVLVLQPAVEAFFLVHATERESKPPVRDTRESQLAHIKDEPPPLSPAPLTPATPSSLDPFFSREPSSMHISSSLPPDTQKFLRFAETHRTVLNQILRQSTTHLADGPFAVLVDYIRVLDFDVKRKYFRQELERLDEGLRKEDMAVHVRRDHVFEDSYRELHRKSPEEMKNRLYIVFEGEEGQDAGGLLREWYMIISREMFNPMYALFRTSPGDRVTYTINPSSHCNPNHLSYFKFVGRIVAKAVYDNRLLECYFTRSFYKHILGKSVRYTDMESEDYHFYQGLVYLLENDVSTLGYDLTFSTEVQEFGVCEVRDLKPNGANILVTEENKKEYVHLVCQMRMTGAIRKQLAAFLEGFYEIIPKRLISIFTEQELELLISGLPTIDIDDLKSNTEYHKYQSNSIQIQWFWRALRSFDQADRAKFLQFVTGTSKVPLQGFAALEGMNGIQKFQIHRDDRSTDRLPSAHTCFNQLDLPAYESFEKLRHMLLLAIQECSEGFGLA

- binding: binds
Substance: HUWE1 (from UniProt Q7Z6Z7 1-4374) (enzyme)
